# Results taken from PubChem BioAssay AID1259415 (National Center for Advancing Translational Sciences (NCATS), 2018).
# Values joined by “and” are separate entries in the source; they are usually repeats but may differ in a detail not shown here. Equal entries are not always repeated. Screen size: about 410,000 compounds; about 18,000 (4.4%) were called active. Inconclusive results, whose numbers are uncertain, are shown with a selection of clear calls. No stated cut-off is given here; in the data, active means activity change below about -60%; inconclusive means no clear call, values can overlap the other calls; inactive means above about -39%.
# Experiment: qHTS Assay for inhibitors of the human cytomegalovirus (HCMV)
# Conditions: HFF cells, HCMV-luciferase reporter, 72 h; at 57.5 µM; active compounds read low
# Outline: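 Luciferase read-out from HCMV-luciferase-infected HFFs (MOI 1 PFU/cell) 72 h post infection at 37C; compounds added after 16 h cell attachment; activity normalized between buffer-only basal and Salinomycin (10uM) inhibitor controls.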
# On the % scale 0 is the no-effect control and ±100 the full control effect.
row,Structure (SMILES),"activity change, negative = inhibition"
1,Cc1ccc(/C=N/Nc2ccc(C(=O)O)cc2)o1,inactive: 92.3%
2,NC(=O)C1(NC(=O)[C@@H]2CC3(CC(c4cccc(NC(=O)[C@@H]5CCC(=O)N5)c4)=NO3)CN2C(=O)c2cnccn2)CC1 (stereo partly drawn),inconclusive: -55.2%
3,O=C(NCC1CCCO1)c1ccc(NC(=O)c2cccc(Cl)c2)cc1 (stereo not drawn),inconclusive: -40.8%
4,CCc1ccc(NC(=O)C2CCC(CNC(=O)[C@@H]3Cc4ccccc4CN3)CC2)cc1 (stereo partly drawn),inactive: 0%
5,O=C(CN1CCC(n2nnc3cc(F)ccc32)CC1)NC1CCCCC1,inactive: 30.7%
6,CCCNC(=O)c1ccc(Cn2cc(-c3ccc(OC)cc3)nc2C(C)N)cc1 (stereo not drawn),inactive: 74.5%
7,CC(C)Cn1cnc2c(N)nc3ccccc3c21,inconclusive: -53.6%
8,Cn1nnnc1SCC(=O)Nc1ccc(Oc2ccc(Cl)cc2)cc1,inactive: 19.4%
9,CCN1CCN(CCNC(=O)c2cc(Cl)c(NC(=O)C3=C(C)OCCS3)cc2OC)CC1,inconclusive: -48.1%
10,CCN(Cc1ccccc1)C(=O)COC(=O)c1c(C)nsc1NC,active: -66.4%
11,C=C(C)Cn1c(C)cc(C)c(S(=O)(=O)c2cccc(C)c2)c1=O,inconclusive: -43%
12,C=C(C)[C@@H]1C2C(=O)O[C@H]1[C@H]1OC(=O)[C@@]34OC3C[C@]2(O)[C@@]14C (stereo partly drawn),inconclusive: -55.6%
13,CC(C)CNC(C(=O)Nc1ccc([N+](=O)[O-])cc1Br)c1ccccc1 (stereo not drawn),inconclusive: -55.6%
14,Cc1ccc2c(c1)nnn2C1CCN(S(=O)(=O)c2ccc3ccccc3c2)CC1,active: -64.4%
15,O=c1[nH]c2ccccc2n1C1CCN(C(c2cccs2)c2nnnn2-c2ccc3c(c2)OCCO3)CC1 (stereo not drawn),active: -80%
16,CCCC1(c2ccccc2)NC(=O)N(CC(=O)NCc2ccc(C)cc2)C1=O (stereo not drawn),inconclusive: -52.4%
17,O=C(Nc1ccc(-c2csc(-c3ccccc3)n2)cc1)c1ccccc1,active: -101%
18,CN(C)c1cc(N/N=C/c2ccc(Cl)cc2)nc(N(C)C)n1,inconclusive: -45.9%
19,O=C(OCCN1C(=O)c2cccc3c(N4CCOCC4)ccc(c23)C1=O)c1ccccc1Cl,inconclusive: -50.8%
20,O=C(CNC(=O)c1ccc(Cl)cc1)OCCCOC(=O)CNC(=O)c1ccc(Cl)cc1,inactive: -5.14%
21,O=C(NC1CCC(CC2CCC(NC(=O)C(Cl)Cl)CC2)CC1)C(Cl)Cl (stereo not drawn),inconclusive: -42.1%
22,CCCc1cc(=O)[nH]c(SCC(=O)c2c(N)n(C)c(=O)n(C)c2=O)n1,inactive: 21.8%

row,Structure (SMILES),"activity change, negative = inhibition"
1,CC1CCN(C(=O)c2[nH]cnc2C(=O)N2CCN(c3ccccc3)CC2)CC1,inactive: -24%
2,CCc1ccccc1N1C(=O)c2ccccc2S1(=O)=O,inconclusive: -46.5%
3,Cc1ccc(/C=N/n2c(C)nnc2C)o1,inactive: 2.72%
4,CCCN1CCN(C(=O)C(C)n2nc(C)c3sc4ccccc4c3c2=O)CC1 (stereo not drawn),inconclusive: -40.1%
5,COc1cccc(NS(=O)(=O)c2ccc3c(c2)NC(=O)C(C)S3)c1 (stereo not drawn),inconclusive: -43.8%
6,Cc1nn(C)cc1C(C)NC(=O)c1cc(COc2cccc3cnccc23)on1 (stereo not drawn),inconclusive: -51.2%
7,CCCNc1nc(=S)n(-c2ccccc2)c(C)c1C(C)=O,inconclusive: -53.5%
8,CN(C(=O)/C=C/c1ccc([N+](=O)[O-])s1)c1ccccc1,inconclusive: -59.1%
9,COc1ccc(C)cc1NS(=O)(=O)c1ccc2c(c1)N(C)CCO2,inconclusive: -51.6%
10,O=C(Cn1nnc(-c2ccccc2)n1)Nc1cccc(S(=O)(=O)N2CCCC2)c1,inconclusive: -44.9%
11,CCN(CC)CCNC(=O)c1ccc(-c2nc(CN3CCc4ccccc43)c(C)o2)cc1,inconclusive: -54.1%
12,O=C(O)c1cc(S(=O)(=O)Nc2ccc3c(c2)OCCO3)c(Cl)cc1Cl,inconclusive: -44.9%
13,Fc1ccc(Cn2c(-c3cscn3)nc3ccccc32)c(Cl)c1,inconclusive: -58%
14,O=C(/C=C/NCc1ccc(F)cc1)c1ccccc1,inconclusive: -50.8%
15,CSc1ccc(CN(C)C(=O)c2cccc(S(=O)(=O)N3CCN(Cc4ccccc4)CC3)c2)cc1,inconclusive: -56.3%
16,Cc1ccc(S(=O)(=O)N2CCN(c3ccnc4cc(Cl)ccc34)CC2)cc1,active: -61.2%
17,CCOc1ccc(S(=O)(=O)NCc2ccc3c(c2)CCN3C(=O)c2ccc(C)cc2)cc1,inconclusive: -49.9%
18,Cc1cc(C(=O)N2CCN(c3cccc(Cl)c3)CC2)c2c(C)nn(-c3ccccc3Cl)c2n1,inconclusive: -57%
19,COc1ccc(CNC(=O)C2=CC(c3ccc(OC)c(OC)c3)=NS(=O)(=O)N2C)cc1,inactive: 3.99% and inactive: -19.5%
20,C/C(=N/NC(=O)CN1CCN(S(=O)(=O)c2ccc(Br)cc2)CC1)c1ccco1,inconclusive: -55.6%
21,Cc1ccc(-c2cc(C(=O)O)c3ccccc3n2)s1,inactive: 183%
